Test results reported in the supplement of paper PMC10849652.
The list shows a part of the results.

Sequences of proteins named here, by UniProt entry; tags and fusion partners are left off. A change or cut given only in a name is not applied to a line headed by its entry.
UniProt P49591: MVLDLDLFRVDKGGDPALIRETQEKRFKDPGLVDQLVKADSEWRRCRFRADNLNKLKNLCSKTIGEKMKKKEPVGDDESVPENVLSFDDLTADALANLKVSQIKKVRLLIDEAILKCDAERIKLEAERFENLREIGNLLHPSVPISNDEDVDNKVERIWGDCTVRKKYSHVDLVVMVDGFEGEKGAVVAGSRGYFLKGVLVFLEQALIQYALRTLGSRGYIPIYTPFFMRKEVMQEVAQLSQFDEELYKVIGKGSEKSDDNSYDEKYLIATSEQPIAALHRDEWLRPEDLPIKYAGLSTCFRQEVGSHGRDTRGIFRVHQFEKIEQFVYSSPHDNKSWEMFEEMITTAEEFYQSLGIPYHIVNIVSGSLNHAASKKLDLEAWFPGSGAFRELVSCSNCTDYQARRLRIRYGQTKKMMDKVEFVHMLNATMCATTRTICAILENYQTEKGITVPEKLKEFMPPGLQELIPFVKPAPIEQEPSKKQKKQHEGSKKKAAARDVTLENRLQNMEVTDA

What was measured:
Test in all cases: log2 fold change, soluble protein after heating vs DMSO (PISA); higher = thermal stabilisation; K562 cells, 10 uM, 30 min; active = over 0.2 and 3.5 SD of the protein, either way, in both replicates (recomputed)
[1] = compound: CNC(=O)c1ccc(Nc2ncc(C(F)(F)F)c(NCc3nccnc3N(C)S(C)(=O)=O)n2)cc1 [defactinib]
How it was run: (§1)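 K562 cells at 2×10^6 cells/mL were exposed to 10 μM compound for 30 min, then aliquots were heated for 3 min across 48°C-58°C, pooled, and extracted in PBS containing 0.5% NP-40 at 4°C. The supernatant after 21,000xg for 90 min was taken as soluble protein and measured by TMTpro 16plex LC-MS/MS with channel sums equalised. Thermal stability is reported relative to control samples, with values from duplicates. Fold changes are given on a log2 scale.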

[2] = compound: CNCc1ccc(-c2[nH]c3cc(F)cc4c3c2CCNC4=O)cc1 [rucaparib]
How it was run: as §1

[3] = compound: CNc1nc(-c2ccc3c(N)n[nH]c3c2)cc(N2C[C@@H](C(=O)NC3CCCCC3)CC[C@H]2C)n1
How it was run: as §1

[4] = compound: COC(=O)N[C@@H](C)CNc1nccc(-c2cn(C(C)C)nc2-c2cc(Cl)cc(NS(C)(=O)=O)c2F)n1 [encorafenib]
How it was run: as §1

[5] = compound: COC(=O)[C@H](CCSC)NC(=O)C1=C(C=C(C=C1)NC[C@H](CS)N)C2=CC=CC=C2
How it was run: as §1

[6] = compound: COC1=CC=C(C=C1)CN2C=CC3=C2C=C(C=C3)C(=O)NO
How it was run: as §1

[7] = compound: CON(C)C(=O)N1N=C(c2cc(F)ccc2F)S[C@@]1(CCCN)c1ccccc1 [filanesib]
How it was run: as §1

[8] = compound: CO[C@H]1C[C@@H]2CC[C@@H](C)[C@@](O)(O2)C(=O)C(=O)N2CCCC[C@H]2C(=O)O[C@H]([C@H](C)C[C@@H]2CC[C@H](n3cnnn3)[C@H](OC)C2)CC(=O)[C@H](C)/C=C(\C)[C@@H](O)[C@@H](OC)C(=O)[C@H](C)C[C@H](C)/C=C/C=C/C=C/1C [zotarolimus]
How it was run: as §1

[9] = compound: COc1cc(C(=O)O)ccc1NC(=O)[C@@H]1N[C@@H](CC(C)(C)C)[C@](C#N)(c2ccc(Cl)cc2F)[C@H]1c1cccc(Cl)c1F [idasanutlin]
How it was run: as §1

[10] = compound: COc1cc(Nc2ncc3c(n2)-c2ccc(Cl)cc2C(c2c(F)cccc2OC)=NC3)ccc1C(=O)O [alisertib]
How it was run: as §1

[11] = compound: COc1cc2nc(-c3cc(F)ccc3O)nc(N[C@@H]3CNC[C@H]3C(C)(C)O)c2cc1OC
How it was run: as §1

[12] = compound: COc1cc2ncnc(Nc3ccc(F)c(Cl)c3)c2cc1OCCCN1CCOCC1 [gefitinib]
How it was run: as §1

[13] = compound: COc1cccc2cc(-c3nc([C@H]4CC[C@H](C(=O)O)CC4)n4ncnc(N)c34)[nH]c12
How it was run: as §1

[14] = compound: CS(=O)(=O)CCNCc1ccc(-c2ccc3ncnc(Nc4ccc(OCc5cccc(F)c5)c(Cl)c4)c3c2)o1 [lapatinib]
How it was run: as §1

[15] = compound: CS(=O)(=O)N1CCN(Cc2cc3nc(-c4cccc5[nH]ncc45)nc(N4CCOCC4)c3s2)CC1 [pictilisib]
How it was run: as §1

[16] = compound: CS(=O)(=O)c1ccc(-c2cnc(N)c(C(=O)Nc3ccccc3)n2)cc1
How it was run: as §1

[17] = compound: C[C@@H](Oc1cc(-c2cnn(C3CCNCC3)c2)cnc1N)c1c(Cl)ccc(F)c1Cl [crizotinib]
How it was run: as §1

[18] = compound: C[C@@H]1COCCN1C2=NC(=NC(=C2)C3(CC3)S(=O)(=O)C)C4=C5C=CNC5=CC=C4
How it was run: as §1

[19] = compound: C[C@H](C1=CC=C(C=C1)C(=O)NC2=C3C=CNC3=NC=C2)N
How it was run: as §1

[20] = compound: C[C@H](Nc1ncnc2nc[nH]c12)c1cc2cccc(Cl)c2c(=O)n1-c1ccccc1 [duvelisib]
How it was run: as §1

[21] = compound: Cc1cc(Nc2cc(CN3CCOCC3)c3nc(C)c(Cc4ccc(Cl)cc4F)n3n2)n[nH]1 [gandotinib]
How it was run: as §1

[22] = compound: Cc1cc(Nc2cc(N3CCN(C)CC3)nc(Sc3ccc(NC(=O)C4CC4)cc3)n2)n[nH]1 [tozasertib]
How it was run: as §1

[23] = compound: Cc1cc(SCc2sc(-c3ccc(C(F)(F)F)cc3)nc2C)ccc1OCC(=O)O
How it was run: as §1

[24] = compound: Cc1ccc(-n2nc(C(C)(C)C)cc2NC(=O)Nc2ccc(OCCN3CCOCC3)c3ccccc23)cc1 [doramapimod]
How it was run: as §1

[25] = compound: Cc1ccc(C(=O)N(CCCN)[C@@H](c2nc3cc(Cl)ccc3c(=O)n2Cc2ccccc2)C(C)C)cc1 [ispinesib]
How it was run: as §1

[26] = compound: Cc1ccc(NC(=O)c2ccc(CN3CC[C@H](N(C)C)C3)c(C(F)(F)F)c2)cc1Nc1nccc(-c2cncnc2)n1 [bafetinib]
How it was run: as §1

[27] = compound: Cc1cccc(CC(=O)N2CCc3c2ccc(-c2cn(C)c4ncnc(N)c24)c3F)n1
How it was run: as §1

[28] = compound: Cc1cn(-c2cc(NC(=O)c3ccc(C)c(Nc4nccc(-c5cccnc5)n4)c3)cc(C(F)(F)F)c2)cn1 [nilotinib]
How it was run: as §1

[29] = compound: Cc1nc(Nc2n[nH]c3c2CN(C(=O)N[C@H](CN(C)C)c2ccccc2)C3(C)C)c2sccc2n1
How it was run: as §1

[30] = compound: Cc1nc(Nc2ncc(C(=O)Nc3c(C)cccc3Cl)s2)cc(N2CCN(CCO)CC2)n1 [dasatinib]
How it was run: as §1

[31] = compound: Cc1ncc(-c2ccnc(Nc3ccc(S(C)(=O)=O)cc3)n2)n1C(C)C
How it was run: as §1

[32] = compound: Cc1sc2c(c1C)C(c1ccc(Cl)cc1)=N[C@@H](CC(=O)OC(C)(C)C)c1nnc(C)n1-2
How it was run: as §1

[33] = compound: Cn1cc(-c2ccc3c(c2)CCN3C(=O)Cc2cccc(C(F)(F)F)c2)c2c(N)ncnc21
How it was run: as §1

[34] = compound: Cn1cc(-c2ccc3nnc(C(F)(F)c4ccc5ncccc5c4)n3n2)cn1
How it was run: as §1

[35] = compound: Cn1cncc1[C@@](N)(c1ccc(Cl)cc1)c1ccc2c(c1)c(-c1cccc(Cl)c1)cc(=O)n2C [tipifarnib]
How it was run: as §1

[36] = compound: FC(F)(F)c1ccc(/C=C/c2nc(COc3ccc(CCCCn4ccnn4)cc3)co2)cc1 [mubritinib]
How it was run: as §1

[37] = compound: NC(=O)Nc1cc(-c2cccc(F)c2)sc1C(=O)N[C@H]1CCCNC1
How it was run: as §1

[38] = compound: NC(=O)c1cnc(N[C@@H]2CCCC[C@@H]2N)nc1Nc1cccc(-n2nccn2)c1
How it was run: as §1

[39] = compound: NC1(c2ccc(-c3nc4ccn5c(=O)[nH]nc5c4cc3-c3ccccc3)cc2)CCC1
How it was run: as §1

[40] = compound: NCC(=O)Nc1ccc(-n2nc(C(F)(F)F)cc2-c2ccc3c(ccc4ccccc43)c2)cc1
How it was run: as §1

[41] = compound: Nc1ccccc1NC(=O)c1ccc(CNC(=O)OCc2cccnc2)cc1 [entinostat]
How it was run: as §1

[42] = compound: O=C(CCCCCCC(=O)Nc1ccccc1)NO [vorinostat]
How it was run: as §1

[43] = compound: O=C(CCCCCCNC(=O)c1cnc(N(c2ccccc2)c2ccccc2Cl)nc1)NO [citarinostat]
How it was run: as §1

[44] = compound: O=C(O)c1ccc2c(c1)nc(Nc1cccc(Cl)c1)c1ccncc12 [silmitasertib]
How it was run: as §1

[45] = compound: O=C1NC(=O)C(c2cnc3ccccn23)=C1c1cn2c3c(cc(F)cc13)CN(C(=O)N1CCCCC1)CC2
How it was run: as §1

[46] = compound: c1cc(OCCN2CCCCC2)cc(-c2n[nH]c3ccc(-c4nnc[nH]4)cc23)c1
How it was run: as §1

[47] = compound: c1ccc([C@@H]2C[C@H]2NC2CCNCC2)cc1
How it was run: as §1

[48] = compound: c1cn2cc(-c3ccc4cn[nH]c4c3)nc(Nc3ccc(N4CCOCC4)cc3)c2n1 [entospletinib]
How it was run: as §1

Measured: log2 fold change

SARS (UniProt P49591)
inactive: [1] -0.044 | [2] -0.063 | [3] 0.001 | [4] -0.015 | [5] -0.006 | [6] 0.03 | [7] -0.074 | [8] -0.004 | [9] -0.002 | [10] -0.043 | [11] -0.03 | [12] -0.013 | [13] 0.034 | [14] -0.015 | [15] 0.025 | [16] 0.017 | [17] 0.022 | [18] 0.039 | [19] -0.041 | [20] 0.012 | [21] -0.009 | [22] -0.007 | [23] -0.013 | [24] -0.034 | [25] 0.059 | [26] -0.008 | [27] -0.026 | [28] -0.007 | [29] 0.027 | [30] -0.02 | [31] 0.015 | [32] 0 | [33] 0.033 | [34] -0.013 | [35] -0.02 | [36] 0.014 | [37] -0.019 | [38] 0.011 | [39] -0.002 | [40] -0.004 | [41] 0 | [42] -0.004 | [43] 0.014 | [44] -0.033 | [45] -0.008 | [46] -0.032 | [47] -0.004 | [48] -0.027
